# From the supplement of paper PMC12067093, “Discovery and optimisation of a covalent ligand for TRIM25 and its application to targeted protein ubiquitination” (Chemical Science, 2025)
# By UniProt entry, the sequences of proteins in these tests, tags left out. Where a name states a change or a piece, a line headed by the entry shows the natural chain unless it says otherwise.
# UniProt Q8WTW3: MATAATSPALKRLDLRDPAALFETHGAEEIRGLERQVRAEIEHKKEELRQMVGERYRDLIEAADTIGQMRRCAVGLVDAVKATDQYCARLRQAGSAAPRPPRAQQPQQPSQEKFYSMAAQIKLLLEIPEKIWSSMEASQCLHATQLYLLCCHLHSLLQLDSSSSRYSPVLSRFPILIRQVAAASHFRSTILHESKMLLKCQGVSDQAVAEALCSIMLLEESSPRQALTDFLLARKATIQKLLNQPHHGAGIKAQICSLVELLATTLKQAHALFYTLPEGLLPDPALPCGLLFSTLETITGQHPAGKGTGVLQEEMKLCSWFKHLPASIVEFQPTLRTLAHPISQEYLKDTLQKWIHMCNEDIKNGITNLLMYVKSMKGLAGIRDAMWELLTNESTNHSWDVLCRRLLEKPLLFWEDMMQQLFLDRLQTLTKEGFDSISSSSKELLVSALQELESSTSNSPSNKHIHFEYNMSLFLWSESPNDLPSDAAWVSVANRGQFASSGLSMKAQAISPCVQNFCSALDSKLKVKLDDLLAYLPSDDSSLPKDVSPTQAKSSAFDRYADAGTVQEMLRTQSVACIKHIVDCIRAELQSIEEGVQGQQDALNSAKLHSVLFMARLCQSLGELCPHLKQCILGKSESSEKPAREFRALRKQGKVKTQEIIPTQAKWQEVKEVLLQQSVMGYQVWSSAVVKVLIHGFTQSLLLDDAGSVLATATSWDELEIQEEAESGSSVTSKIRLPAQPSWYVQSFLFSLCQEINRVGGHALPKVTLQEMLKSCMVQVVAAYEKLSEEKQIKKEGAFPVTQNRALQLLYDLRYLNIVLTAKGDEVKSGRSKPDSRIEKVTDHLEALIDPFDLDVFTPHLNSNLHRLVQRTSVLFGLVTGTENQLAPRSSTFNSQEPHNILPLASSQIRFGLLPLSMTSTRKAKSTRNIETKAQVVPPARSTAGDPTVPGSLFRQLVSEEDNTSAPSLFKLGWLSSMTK
# UniProt Q9UBF2: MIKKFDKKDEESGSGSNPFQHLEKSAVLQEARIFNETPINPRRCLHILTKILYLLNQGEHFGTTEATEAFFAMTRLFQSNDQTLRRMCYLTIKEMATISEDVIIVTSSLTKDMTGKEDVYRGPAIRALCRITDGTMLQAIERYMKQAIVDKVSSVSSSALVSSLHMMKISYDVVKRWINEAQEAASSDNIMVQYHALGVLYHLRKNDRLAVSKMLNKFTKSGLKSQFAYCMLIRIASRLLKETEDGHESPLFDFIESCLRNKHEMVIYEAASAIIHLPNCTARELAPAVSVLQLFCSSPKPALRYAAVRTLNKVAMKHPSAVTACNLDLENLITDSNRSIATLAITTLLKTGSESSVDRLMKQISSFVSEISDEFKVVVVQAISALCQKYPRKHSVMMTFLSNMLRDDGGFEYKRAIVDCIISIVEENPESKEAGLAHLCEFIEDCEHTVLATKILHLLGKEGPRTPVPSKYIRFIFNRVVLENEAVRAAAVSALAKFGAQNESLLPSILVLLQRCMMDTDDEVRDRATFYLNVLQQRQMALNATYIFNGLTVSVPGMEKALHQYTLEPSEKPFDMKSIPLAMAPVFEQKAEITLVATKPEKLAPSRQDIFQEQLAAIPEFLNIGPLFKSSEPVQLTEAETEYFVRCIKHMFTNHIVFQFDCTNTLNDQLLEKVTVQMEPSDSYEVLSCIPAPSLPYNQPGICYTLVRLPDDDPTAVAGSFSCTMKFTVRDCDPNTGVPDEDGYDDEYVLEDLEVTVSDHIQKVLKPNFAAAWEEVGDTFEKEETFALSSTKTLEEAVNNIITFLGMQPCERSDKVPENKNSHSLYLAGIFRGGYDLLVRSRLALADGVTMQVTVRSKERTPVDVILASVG
# This is one part of the list.
# Key:
# COG1_Q8WTW3_584_HIVDCIR = COG1_Q8WTW3_584_HIVDCIR (UniProt Q8WTW3); assay: probe-labelled cysteine peptide fold change vs DMSO (competition) (log2 fold change); higher = less target engagement (more negative = stronger competition); details: THP-1, incubation time: 4 h
# [1] = target: COPG2_Q9UBF2_662_HMFTNHIVFQFDCTNTLNDQLLEK (UniProt Q9UBF2); assay: as above; details: THP-1, incubation time: 4 h
# 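Also: competitive profiling in live THP-1 cells: cysteine peptides tagged with an iodoacetamide desthiobiotin (IA-DTB) probe, intensity after compound treatment relative to DMSO-treated cells.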
smiles,measurement,setting,value
Cc1cc(C(=O)N2CCCN(C(=O)CCl)CC2)ccc1-c1ccccc1 [compound 10],probe-labelled cysteine peptide fold change,COG1_Q8WTW3_584_HIVDCIR; 10 µM,0.137
same,probe-labelled cysteine peptide fold change,COG1_Q8WTW3_584_HIVDCIR; 50 µM,0.244
same,probe-labelled cysteine peptide fold change,[1]; 10 µM,-0.262
same,probe-labelled cysteine peptide fold change,[1]; 50 µM,-0.255
